PubChem BioAssay AID743458 | Peter MacCallum Cancer Centre | 2014

- Test: 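Identify genes whose loss lifts vorinostat resistance in colon cancer cells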 (follow-up of hits)
- Cells: human HCT116-VR colon cancer cells made resistant to vorinostat
- Reagent: single siRNA or pool against human genes, 25 nM per single siRNA
- Time to read-out: about 72 h after transfection, including 24 h of drug
- Conditions: vorinostat, 2.5 µM final, for 24 h
- Read-out: 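Cell viability by fluorescence and apoptosis by caspase 3/7 luminescence under vorinostat, background-corrected, averaged across two plate copies and given as fold change versus mock transfection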
- Scale: viability relative to mock: higher = more living cells than mock; caspase activity relative to mock: higher = more apoptosis than mock
- Active means: 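Active means a reduced-viability or caspase-activation class, anything else inactive; classes could only be given to wells that looked healthy when left untreated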
In all, the deposit lists about 1,800 reagents; shown is an unselected part. Over the whole deposit, 732 (41%) got an active call. 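Calls are per siRNA reagent; a gene was deemed confirmed only if most of its four siRNAs scored.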 The numbers tell different reagents against one gene apart.

What did the screen give for KDM5D #1?
viability relative to mock: 0.92; caspase activity relative to mock: 1.23; viability hit class: no change; caspase hit class: no change; Call: inactive

With KDM5D #2, what does the deposit list?
viability relative to mock: 0.88; caspase activity relative to mock: 1.08; viability hit class: no change; caspase hit class: no change; Call: inactive

For KDM5D #3, what was measured?
viability relative to mock: 0.88; caspase activity relative to mock: 1.05; viability hit class: no change; caspase hit class: no change; Call: inactive

With KDM5D #4, what does the deposit list?
viability relative to mock: 0.82; caspase activity relative to mock: 0.76; viability hit class: no change; caspase hit class: no change; Call: inactive

What is on record for FOXI1 #1?
viability relative to mock: 0.64; caspase activity relative to mock: 2.23; viability hit class: no change; caspase hit class: no change; Call: inactive

With FOXI1 #2, what does the deposit list?
viability relative to mock: 0.98; caspase activity relative to mock: 1.47; viability hit class: no change; caspase hit class: no change; Call: inactive

With FOXI1 #3, how do the results read?
viability relative to mock: 0.97; caspase activity relative to mock: 1.17; viability hit class: no change; caspase hit class: no change; Call: inactive

With FOXI1 #4, what does the deposit list?
viability relative to mock: 0.94; caspase activity relative to mock: 1.67; viability hit class: no change; caspase hit class: no change; Call: inactive

Which result is listed for PRICKLE2 #1?
viability relative to mock: 0.94; caspase activity relative to mock: 2.66; viability hit class: no change; caspase hit class: caspase activation; Call: active

For PRICKLE2 #2, what was measured?
viability relative to mock: 1.02; caspase activity relative to mock: 1.01; viability hit class: no change; caspase hit class: no change; Call: inactive

For PRICKLE2 #3, how do the results read?
viability relative to mock: 0.85; caspase activity relative to mock: 1.02; viability hit class: no change; caspase hit class: no change; Call: inactive

For PRICKLE2 #4, what does the deposit list?
viability relative to mock: 0.92; caspase activity relative to mock: 1.11; viability hit class: no change; caspase hit class: no change; Call: inactive

What is on record for MRPS11 #1?
viability relative to mock: 0.55; caspase activity relative to mock: 1.63; viability hit class: reduced viability; caspase hit class: no change; Call: active

For MRPS11 #2, how do the results read?
viability relative to mock: 0.84; caspase activity relative to mock: 3.28; viability hit class: no change; caspase hit class: caspase activation; Call: active

With MRPS11 #3, what was measured?
viability relative to mock: 0.94; caspase activity relative to mock: 1.96; viability hit class: no change; caspase hit class: no change; Call: inactive

With MRPS11 #4, what does the deposit list?
viability relative to mock: 0.18; caspase activity relative to mock: 3.14; viability hit class: reduced viability; caspase hit class: caspase activation; Call: active

Reformatted: entries from further up.
gene | reagent | viability relative to mock | caspase activity relative to mock | viability hit class | caspase hit class | Call
FOXI1 | 4 | 0.94 | 1.67 | no change | no change | inactive
PRICKLE2 | 1 | 0.94 | 2.66 | no change | caspase activation | active
PRICKLE2 | 2 | 1.02 | 1.01 | no change | no change | inactive

Additional reagents follow.
How did the screen score ABHD16B #1?
viability relative to mock: 0.48; caspase activity relative to mock: 5.25; viability hit class: reduced viability; caspase hit class: caspase activation; Call: active

How did the screen score ABHD16B #2?
viability relative to mock: 0.76; caspase activity relative to mock: 1.85; viability hit class: no change; caspase hit class: no change; Call: inactive

What is on record for ABHD16B #3?
viability relative to mock: 0.85; caspase activity relative to mock: 1.06; viability hit class: no change; caspase hit class: no change; Call: inactive

For ABHD16B #4, what was measured?
viability relative to mock: 0.74; caspase activity relative to mock: 0.91; viability hit class: no change; caspase hit class: no change; Call: inactive

For POLR2J3 #1, how do the results read?
viability relative to mock: 0.7; caspase activity relative to mock: 2.77; viability hit class: no change; caspase hit class: caspase activation; Call: active

What is on record for POLR2J3 #2?
viability relative to mock: 1; caspase activity relative to mock: 1.26; viability hit class: no change; caspase hit class: no change; Call: inactive

What did the screen give for POLR2J3 #3?
viability relative to mock: 0.77; caspase activity relative to mock: 1.54; viability hit class: no change; caspase hit class: no change; Call: inactive

For POLR2J3 #4, how do the results read?
viability relative to mock: 0.96; caspase activity relative to mock: 1.86; viability hit class: no change; caspase hit class: no change; Call: inactive
